## Library screening results

By UniProt entry, the sequences of proteins in these tests, tags left out.
UniProt E9BF75, entry or part of it: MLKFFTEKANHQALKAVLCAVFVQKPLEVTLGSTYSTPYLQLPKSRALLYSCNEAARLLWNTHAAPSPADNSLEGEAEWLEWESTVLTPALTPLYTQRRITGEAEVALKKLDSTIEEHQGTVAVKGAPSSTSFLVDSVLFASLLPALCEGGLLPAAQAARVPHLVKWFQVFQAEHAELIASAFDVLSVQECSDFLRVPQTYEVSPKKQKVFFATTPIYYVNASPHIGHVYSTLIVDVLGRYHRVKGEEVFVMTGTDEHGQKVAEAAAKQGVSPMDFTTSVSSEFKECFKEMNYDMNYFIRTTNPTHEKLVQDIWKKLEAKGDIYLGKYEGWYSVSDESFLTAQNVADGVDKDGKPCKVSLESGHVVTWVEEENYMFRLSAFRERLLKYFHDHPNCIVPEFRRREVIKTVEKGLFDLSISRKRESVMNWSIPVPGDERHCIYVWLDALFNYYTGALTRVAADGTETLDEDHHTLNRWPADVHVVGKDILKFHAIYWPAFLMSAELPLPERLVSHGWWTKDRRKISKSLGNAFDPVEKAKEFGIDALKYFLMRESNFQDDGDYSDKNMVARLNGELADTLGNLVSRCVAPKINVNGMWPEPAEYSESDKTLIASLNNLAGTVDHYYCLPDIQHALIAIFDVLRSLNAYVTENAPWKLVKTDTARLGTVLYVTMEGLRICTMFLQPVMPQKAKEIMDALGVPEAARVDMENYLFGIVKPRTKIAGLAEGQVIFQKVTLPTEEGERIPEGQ

Data taken from ChEMBL document CHEMBL3988442, “University of Dundee, Small-Polar-MMV Screening Library” (2021).

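Primary screen of methionyl-tRNA synthetase; the read-out is not stated. Target: Methionyl-tRNA synthetase (putative), Leishmania donovani (UniProt E9BF75). The test concentration is not given. Values are per cent inhibition. About 68,000 compounds were tested under these conditions; 0.035% (about 24) showed 50% or more at least once.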

Results are percentages, as filed.
The record does not define 0% and 100%; most values in the screen are far below 50% and negative numbers occur (in some assays of this library far below -100).
This is an unselected part of the compounds tested.

Compound | Inhibition
Cc1ncsc1C(=O)NCCNc1ncccn1 | 6.286%
COCCN1CCCC12CCN(Cc1cncn1C)CC2 | 17.07%
COc1ccc([C@@H]2CN(c3cc(OC)nc(N)n3)C[C@H]2N(C)C)cc1 | 17.25%
CCN1CCN(Cc2ccnc(-c3cccnc3)n2)CC1 | 11.99%
CCOc1cccc2c1OCC(C(=O)NS(=O)(=O)c1ccc(Cl)cc1)=C2 | 9.15%
Fc1ccc(N2CCOC3(COCCN(c4ncccn4)C3)C2)cc1 (stereo not given) | 8.791%
CC(=O)NC1CCCN(c2ccc(C#N)cc2C(F)(F)F)C1 (stereo not given) | 8.493%
CCC(CNC1CCN(C(C)=O)CC1)Oc1ccccc1Cl (stereo not given) | 12.24%
O=C(c1cccnc1OCC(F)(F)F)N1CCCn2ncnc21 | 13.46%
CCOC1CCN(C(=O)c2ccc(-c3cccc(C)c3)[nH]c2=O)CC1 | 13.96%
COCCN1CCC(NC(=O)Nc2cccc(F)c2)C1 (stereo not given) | 12.37%
Cc1cc(C)nc(CCNc2nccc(CCC(F)(F)F)n2)n1 | 4.795%
Cc1ccc(-c2cc(C(F)(F)F)nc(N3CCOCC3)n2)s1 | 15.32%
CCC(C)(C)NC(=O)CSCc1ccc(S(=O)(=O)N(C)C)o1 | 7.246%
CN(Cc1c[nH]nc1-c1ccc(F)cc1F)Cc1nccn1C | 2.135%
CO[C@H]1CCN(Cc2cccs2)[C@@H]2CN(Cc3ccncc3)C[C@H]12 | 14.21%
Cc1ccc2cc(C3(O)CCN(C(=O)CSC(C)C)CC3)ccc2n1 | 11.61%
Cc1cccc(-c2noc([C@@H]3Cc4nc[nH]c4CN3)n2)c1 | 10.44%
Cc1cc(S(=O)(=O)Nc2cccc(-n3cccc3)c2)sc1C(=O)O | -3.346%
Cc1nc(NC(C)C)nc2c1CN(Cc1nccn1C)CC2 | 3.759%
CCC(C)NS(=O)(=O)Cc1cccc(NC(=O)C2=CCCC2)c1 (stereo not given) | 17.9%
CCn1nccc1CNc1nc(N)nc2c1nc(C)n2C | 16.13%
Cc1ncsc1CNC(=O)N(Cc1ccccc1)CC(C)(C)O | 17.66%
COc1cccc(CN2CCc3nc(C(N)=O)sc3CC2)c1 | 4.53%
N#Cc1cc(N2CCC(CS(N)(=O)=O)CC2)c2ccccc2n1 | 10.42%
CC(C)Cc1cc(C(=O)NCC(O)c2ccc(F)cc2)n(C)n1 (stereo not given) | 15.85%
COc1c(C2CCCN2Cc2csc(C(C)C)n2)c(C)nn1C (stereo not given) | -1.215%
CN1CCN(C[C@@H]2CN(C(=O)CCc3cn[nH]c3)C[C@@H]2CO)CC1 | 11.2%
CCOCC1CN(C(=O)C2=CCCC2)Cc2cnn(CC)c21 (stereo not given) | 17.85%
O=S(=O)(NCC1(c2cccs2)CCOCC1)c1cccnc1 | 8.192%
CCn1cc(C(=O)N(C)Cc2c(F)cccc2Cl)cn1 | 14.09%
c1cc(-c2ccc3c(c2)CCC32CCN(c3nncs3)CC2)co1 | 40%
CN(C)C(=O)C1CCN(C2CCN(CC3CCC3)CC2)CC1 | 14.84%
CNc1ccnc(N2CCC(c3nnc(CN4CCCC4)n3C)CC2)n1 | -0.3484%
CC1CCN(C(=O)[C@@H]2CC[C@@H]3[C@@H](CCN3c3ncc(F)cn3)O2)CC1 | 10.75%
CN(C)CCNC(=O)[C@H]1C[C@@H]2CN(C(=O)NC3CCCC3)C[C@H]1O2 | 4.71%
CCc1cc(NC2CCN(CC(N)=O)CC2)nc(N2CCCCC2)n1 | 11.94%
CCc1ncc(C(=O)N(C)C2Cc3ccccc3C2)cn1 | 2.062%
COc1cccc(NC(=O)C2CC(=O)n3cnnc3S2)c1 (stereo not given) | 9.115%
Cc1cc(C(=O)N(C)C2CCN(C)C2)c2ccc(F)cc2n1 (stereo not given) | 0.3058%
CC(C)CN1CC(C(=O)NCc2cccnc2-n2cccn2)CC1=O (stereo not given) | 19.34%
Cn1ncc2c(NCCCOc3cccnc3)nc(C3CCCC3)nc21 | 9.22%
CCS(=O)(=O)NCC1Cn2nnc(-c3cccc(C)c3)c2CO1 (stereo not given) | 19.05%
O=C(c1ccco1)N1CCOCC2(CCN(C3CCOCC3)C2)C1 (stereo not given) | 9.544%
N#Cc1ccc(F)c(CN2CCc3sccc3C2)c1 | 10.99%
CCc1ncnc(N(C)CC2CCCCO2)c1F (stereo not given) | 8.807%
CC(=O)N1CCC(c2n[nH]c3nccnc23)CC1 | 10.59%
O=C1OCCN1CCS(=O)(=O)c1cccc(Cl)c1 | 19.37%
CC(c1ccccn1)N(C)Cc1cc2cc3c(cc2[nH]c1=O)OCO3 (stereo not given) | -0.5115%
N#Cc1ccc2c(c1)CN(C(=O)C1CC=CC1)C2c1cnco1 (stereo not given) | 14.13%
Cc1cccc(CNC(=O)N(CCCO)C2CCc3ccccc32)n1 (stereo not given) | 12.05%
Cc1ccnc(NCCNC(=O)c2ccccc2NCC(=O)O)c1 | 13.66%

The first 5 entries again:

- Cc1ncsc1C(=O)NCCNc1ncccn1 | 6.286%
- COCCN1CCCC12CCN(Cc1cncn1C)CC2 | 17.07%
- COc1ccc([C@@H]2CN(c3cc(OC)nc(N)n3)C[C@H]2N(C)C)cc1 | 17.25%
- CCN1CCN(Cc2ccnc(-c3cccnc3)n2)CC1 | 11.99%
- CCOc1cccc2c1OCC(C(=O)NS(=O)(=O)c1ccc(Cl)cc1)=C2 | 9.15%